# What was measured:
# [1] = system: transcriptional activity of hTERT; assay: SEAP reporter assay of hTERT expression, PhTERT-SEAP (H1299); type: cell-based, human
# Experimental: (§1) Secreted alkaine phosphatase was used as the reporter system to monitor the transcriptional activity of hTERT. Here, about […] each were grown in 96-well plates and incubated at 37° C. for 24 h and changed with fresh media. Varying amounts of drugs were added and cells were incubated for another 24 h. Culture media were collected and heated at 65° C. for 10 min to inactivate heat-labile phosphatases. An equal amount of SEAP buffer (2 M diethanolamine, 1 mM MgCl2, and 20 mM […]) was added to the media and p-nitrophenyl phosphate was added to a final concentration of 12 mM. Absorptions at 405 nm were taken, and the rate of absorption increase is determined.
# (§2) Culture media were changed every 3 days. […] The stable clones were selected using G418.
# [2] = system: transcriptional activity of hTERT; assay: SEAP reporter assay of hTERT expression, PhTERT-SEAP (hTERT-BJ1); type: cell-based, human
# Experimental: as §1, §2
structure (smiles),measurement,setting,value
"O=C1c2cccc(NCCCO)c2C(=O)c2cccc(NCCCO)c21 [IVh, 1,5-Bis(propanolamino)anthraquinone]",SEAP/vibility,[1]; 2.8 μM,0.82
same,SEAP/vibility,[1]; 28 μM,1.41
same,SEAP/vibility,[1]; 282 μM,0.81
same,SEAP/vibility,[2]; 2.8 μM,0.57
same,SEAP/vibility,[2]; 28 μM,0.01
same,SEAP/vibility,[2]; 282 μM,−0.10
"O=C1c2cccc(NCCc3ccccc3)c2C(=O)c2cccc(NCCc3ccccc3)c21 [IVs, 1,5-Bis(phenylethylamino)-anthraquinone]",SEAP/vibility,[1]; 2.2 μM,1.12
same,SEAP/vibility,[1]; 22 μM,1.06
same,SEAP/vibility,[1]; 223 μM,1.25
same,SEAP/vibility,[2]; 2.2 μM,1.18
same,SEAP/vibility,[2]; 22 μM,1.12
same,SEAP/vibility,[2]; 223 μM,1.65
"CCNc1cccc2c1C(=O)c1cccc(NCC)c1C2=O [IVa, 1,5-Bis(ethylamino)anthraquinone]",SEAP/vibility,[1]; 3.3 μM,1.01
same,SEAP/vibility,[1]; 33 μM,0.97
same,SEAP/vibility,[1]; 339 μM,0.91
same,SEAP/vibility,[2]; 3.3 μM,0.94
same,SEAP/vibility,[2]; 33 μM,1.00
same,SEAP/vibility,[2]; 339 μM,0.67
"O=C1c2c(O)ccc(O)c2C(=O)c2c(NCCNCCO)ccc(NCCNCCO)c21 [Mitoxantrone, reference compound]",SEAP/vibility,[1]; 1.9 μM,0.82
same,SEAP/vibility,[1]; 19 μM,1.16
same,SEAP/vibility,[1]; 193 μM,1.21
same,SEAP/vibility,[2]; 1.9 μM,0.40
same,SEAP/vibility,[2]; 19 μM,0.24
same,SEAP/vibility,[2]; 193 μM,0.38
"CCCNc1cccc2c1C(=O)c1cccc(NCCC)c1C2=O [IVf, 1,5-Bis(propylamino)anthraquinone]",SEAP/vibility,[1]; 3.1 μM,1.02
same,SEAP/vibility,[1]; 31 μM,1.03
same,SEAP/vibility,[1]; 310 μM,1.93
same,SEAP/vibility,[2]; 3.1 μM,0.18
same,SEAP/vibility,[2]; 31 μM,0.20
same,SEAP/vibility,[2]; 310 μM,−0.16
"CCCCNc1cccc2c1C(=O)c1cccc(NCCCC)c1C2=O [IVj, 1,5-Bis(butylamino)anthraquinone]",SEAP/vibility,[1]; 2.8 μM,1.04
same,SEAP/vibility,[1]; 28 μM,1.01
same,SEAP/vibility,[1]; 285 μM,1.21
same,SEAP/vibility,[2]; 2.8 μM,0.89
same,SEAP/vibility,[2]; 28 μM,1.04
same,SEAP/vibility,[2]; 285 μM,1.64
"CN(C)CCNc1cccc2c1C(=O)c1cccc(NCCN(C)C)c1C2=O [IVd, 1,5-Bis(2-dimethylaminoethylamino)anthraquinone]",SEAP/vibility,[1]; 2.6 μM,0.95
same,SEAP/vibility,[1]; 26 μM,0.67
same,SEAP/vibility,[1]; 262 μM,1.39
same,SEAP/vibility,[2]; 2.6 μM,0.12
same,SEAP/vibility,[2]; 26 μM,−0.19
same,SEAP/vibility,[2]; 262 μM,−3.77
"O=C1c2cccc(NCCO)c2C(=O)c2cccc(NCCO)c21 [IVb, 1,5-Bis(ethanolamino)anthraquinone]",SEAP/vibility,[1]; 3.0 μM,0.86
same,SEAP/vibility,[1]; 30 μM,1.00
same,SEAP/vibility,[1]; 308 μM,1.08
same,SEAP/vibility,[2]; 3.0 μM,0.39
same,SEAP/vibility,[2]; 30 μM,0.18
same,SEAP/vibility,[2]; 308 μM,0.16
"O=C1c2cccc(NCCNCCO)c2C(=O)c2cccc(NCCNCCO)c21 [IVe, 1,5-Bis[2-(2-Aminoethylamino)ethanol]anthraquinone]",SEAP/vibility,[1]; 2.4 μM,0.89
same,SEAP/vibility,[1]; 24 μM,1.15
same,SEAP/vibility,[1]; 242 μM,3.77
same,SEAP/vibility,[2]; 2.4 μM,0.72
same,SEAP/vibility,[2]; 24 μM,0.67
same,SEAP/vibility,[2]; 242 μM,1.18
NCCCNc1cccc2c1C(=O)c1cccc(NCCCN)c1C2=O,SEAP/vibility,[1]; 2.8 μM,1.20
same,SEAP/vibility,[1]; 28 μM,1.39
same,SEAP/vibility,[1]; 283 μM,2.34
same,SEAP/vibility,[2]; 2.8 μM,1.22
same,SEAP/vibility,[2]; 28 μM,15.35
same,SEAP/vibility,[2]; 283 μM,−28.94
"CC(C)Nc1cccc2c1C(=O)c1cccc(NC(C)C)c1C2=O [IVc, 1,5-Bis(isopropylamino)anthraquinone]",SEAP/vibility,[1]; 3.1 μM,0.82
same,SEAP/vibility,[1]; 31 μM,0.84
same,SEAP/vibility,[1]; 310 μM,1.32
same,SEAP/vibility,[2]; 3.1 μM,0.32
same,SEAP/vibility,[2]; 31 μM,0.25
same,SEAP/vibility,[2]; 310 μM,−0.02
"O=C1c2cccc(NCCCCO)c2C(=O)c2cccc(NCCCCO)c21 [IVk, 1,5-Bis(butanolamino-)-anthraquinone]",SEAP/vibility,[1]; 2.6 μM,0.78
same,SEAP/vibility,[1]; 26 μM,0.65
same,SEAP/vibility,[1]; 265 μM,1.65
same,SEAP/vibility,[2]; 2.6 μM,1.13
same,SEAP/vibility,[2]; 26 μM,1.12
same,SEAP/vibility,[2]; 265 μM,1.39
CC(C)CNc1cccc2c1C(=O)c1cccc(NCC(C)C)c1C2=O,SEAP/vibility,[1]; 2.8 μM,0.87
same,SEAP/vibility,[1]; 28 μM,0.85
same,SEAP/vibility,[1]; 285 μM,0.94
same,SEAP/vibility,[2]; 2.8 μM,0.20
same,SEAP/vibility,[2]; 28 μM,0.21
same,SEAP/vibility,[2]; 285 μM,0.41
"O=C1c2cccc(NC3CCCC3)c2C(=O)c2cccc(NC3CCCC3)c21 [IVo, 1,5-Bis(cyclopentaneamino)-anthraquinone]",SEAP/vibility,[1]; 2.3 μM,1.01
same,SEAP/vibility,[1]; 23 μM,1.04
same,SEAP/vibility,[1]; 238 μM,2.45
same,SEAP/vibility,[2]; 2.3 μM,1.00
same,SEAP/vibility,[2]; 23 μM,0.91
same,SEAP/vibility,[2]; 238 μM,1.15
